Results on 4 molecules are retold here after PMC9032445.

The chains behind the UniProt entries cited, without tags or fusion partners. Where a name states a change or a piece, a line headed by the entry shows the natural chain unless it says otherwise.
UniProt Q9C103: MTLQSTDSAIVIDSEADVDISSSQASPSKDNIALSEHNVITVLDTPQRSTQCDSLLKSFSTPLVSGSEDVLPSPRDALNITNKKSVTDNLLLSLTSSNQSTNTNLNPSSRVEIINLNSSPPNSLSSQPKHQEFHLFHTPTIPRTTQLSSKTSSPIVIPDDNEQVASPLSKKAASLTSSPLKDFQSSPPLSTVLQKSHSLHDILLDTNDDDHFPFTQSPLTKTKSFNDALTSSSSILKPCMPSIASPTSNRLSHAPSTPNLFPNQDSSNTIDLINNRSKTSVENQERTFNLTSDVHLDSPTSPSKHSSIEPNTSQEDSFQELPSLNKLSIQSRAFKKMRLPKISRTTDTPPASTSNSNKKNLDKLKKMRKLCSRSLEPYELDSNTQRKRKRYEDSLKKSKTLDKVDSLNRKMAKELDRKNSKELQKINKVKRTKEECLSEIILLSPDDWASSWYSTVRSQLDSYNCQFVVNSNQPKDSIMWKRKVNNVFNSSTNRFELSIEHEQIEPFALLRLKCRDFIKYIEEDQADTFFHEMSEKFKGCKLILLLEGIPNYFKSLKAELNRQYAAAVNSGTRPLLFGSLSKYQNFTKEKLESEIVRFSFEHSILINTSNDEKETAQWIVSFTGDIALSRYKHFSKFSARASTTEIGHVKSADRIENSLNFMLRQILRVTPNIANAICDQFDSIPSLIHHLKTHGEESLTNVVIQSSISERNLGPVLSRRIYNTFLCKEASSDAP

No constants are given. Whether binding was seen depends on the method and setting. For part of these data: Binding can be weak; no strength is given. For part of these data: Binding seen in cells or lysates may run through a third protein. For part of these data: Where a sequence is shown, tags or fusion partners need not be part of it.

The target in one experiment is T1, Mus81-6His (S. pombe) (UniProt P87231).
T1 sequence: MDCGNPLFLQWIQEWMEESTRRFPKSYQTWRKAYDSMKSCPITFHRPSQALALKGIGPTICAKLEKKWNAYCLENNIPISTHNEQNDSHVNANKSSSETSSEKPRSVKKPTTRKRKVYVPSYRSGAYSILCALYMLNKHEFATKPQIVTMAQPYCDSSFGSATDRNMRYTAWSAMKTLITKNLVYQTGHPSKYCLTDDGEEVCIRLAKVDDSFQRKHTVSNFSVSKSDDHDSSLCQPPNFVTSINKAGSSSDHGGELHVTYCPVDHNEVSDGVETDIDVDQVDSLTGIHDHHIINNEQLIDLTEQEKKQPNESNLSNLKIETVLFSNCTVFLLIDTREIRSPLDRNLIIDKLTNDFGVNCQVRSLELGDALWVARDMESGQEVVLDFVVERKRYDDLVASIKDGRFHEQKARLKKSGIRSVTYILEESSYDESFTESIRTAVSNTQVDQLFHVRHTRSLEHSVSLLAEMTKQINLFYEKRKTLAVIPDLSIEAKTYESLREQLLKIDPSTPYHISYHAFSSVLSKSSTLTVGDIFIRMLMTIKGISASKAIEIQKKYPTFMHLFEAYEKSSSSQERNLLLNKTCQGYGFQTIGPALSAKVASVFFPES
The experiment can be described thus: pull-down; co-expression in E. coli Rosetta (DE3) pLysS; cleared lysate on Ni2+ agarose beads (Mus81-6His), imidazole eluate on amylose beads (MBP-Eme1), eluted with 10 mM maltose; 4°C.

Experiment [1] has as its target Eme1^1-130 with point mutations in SIM2 (S. pombe) (UniProt Q9C103). Put plainly: two-hybrid; LexA / B42-AD system in S. cerevisiae EGY48 + pSH18-34; Eme1^1-130 as bait; clones spotted onto 3% Gal -URA-TRP-HIS-LEU and 3% Gal -URA-TRP-HIS-Xgal plates, 30°C, 2 to 4 days.
Experiment [2] concerns the target Eme1^1-130 with point mutations in both SIMs (S. pombe) (UniProt Q9C103). The description is as above.
Experiment [3] addresses Eme1^1-130 with point mutations in SIM1 (S. pombe) (UniProt Q9C103). Described as above.

“MBP-Eme1^cluster1* (mutated for S23/T50) (from UniProt Q9C103)”: the binding result with Mus81-6His (S. pombe) was “binds”. Consider “MBP-Eme1^cluster2* (mutated for S126/T145/T215) (from UniProt Q9C103)”, for which, in the experiment with Mus81-6His (S. pombe), the binding result is reported as “binds”. The same measure, in the same setting: the value for “MBP-Eme1^cluster3* (mutated for S313/T384/S458) (from UniProt Q9C103)” was “binds”.

B1: Pmt3, the unique S. pombe SUMO ortholog (protein, UniProt O13351 1-117)
chain: MSESPSANISDADKSAITPTTGDTSQQDVKPSTEHINLKVVGQDNNEVFFKIKKTTEFSKLMKIYCARQGKSMNSLRFLVDGERIRPDQTPAELDMEDGDQIEAVLEQLGGCTHLCL
For B1, the results for the binding entry in experiment [1], in experiment [2] and in experiment [3] were “binds”, “no binding” and “binds weakly”, respectively.
